Patent publication US20230321199A1, “USES OF PTHrP ANALOGUE IN REDUCING FRACTURE RISK” (Radius Health, Inc., priority 2015, published 2023)
Several values for one entry are separate records, joined by “and”; a condition that tells them apart may be missing. Equal entries are not always repeated. Not every detail of the peptide structures is certain; ends, links or a residue may be inferred.

Legend:
[1] = tested on: ovariectomized (OVX) osteopenic rats; assay: OVX osteopenic rats: bone microarchitecture by μCT; type: in vivo, Sprague-Dawley rats; settings: 6 weeks; for Femoral cortical bone BV / Femoral cortical bone BV/TV / Femoral cortical bone Ct.Th / Femoral cortical bone MV / Femoral cortical bone TV / Femoral trabecular bone BD / Femoral trabecular bone BV / Femoral trabecular bone BV/TV / Femoral trabecular bone Conn.D / Femoral trabecular bone SMI / Femoral trabecular bone TV / Femoral trabecular bone Tb.N / Femoral trabecular bone Tb.Sp / Femoral trabecular bone Tb.Th / L4 Lumbar Spine BD / L4 Lumbar Spine BV / L4 Lumbar Spine BV/TV / L4 Lumbar Spine Conn.D / L4 Lumbar Spine SMI / L4 Lumbar Spine TV / L4 Lumbar Spine Tb.N / L4 Lumbar Spine Tb.Sp / L4 Lumbar Spine Tb.Th: mean
[2] = tested on: postmenopausal women with osteoporosis; assay: ACTIVE phase 3 trial: fracture rates and fracture risk over 18 months; type: in vivo, human; settings: abaloparatide 80 μg v. teriparatide 20 μg daily SC
Method: The ACTIVE phase 3 fracture prevention trial was conducted for abaloparatide in postmenopausal women with osteoporosis who were otherwise healthy. The enrolled subjects were treated with 80 micrograms (μg) of abaloparatide, a matching placebo, or the approved daily dose of 20 μg of teriparatide for 18 months. The ACTIVE trial evaluated fracture rates, fracture risks, BMD, and bone turnover biomarkers (e.g., CTX and P1NP) in all patient groups.
Fracture risk reduction and hazard ratio (HR) were derived from Kaplan-Meier (KM) curve.
The ACTIVE pivotal Phase 3 fracture prevention trial for the PTHrP analogue abaloparatide, Study BA058-05-003 (see ClinicalTrials.gov), was a randomized, double-blind, placebo-controlled trial in postmenopausal osteoporotic women randomized to receive daily doses of one of the following for 18 months: 80 micrograms (μg) of abaloparatide; a matching placebo; or the approved daily dose of 20 μg of teriparatide. Treatment with abaloparatide at a daily dose of 80 μg or placebo remained blinded to all parties throughout the study. Teriparatide used was a proprietary prefilled drug and device combination that could not be repackaged. Therefore, its identity could not be blinded to treating physicians and patients once use began. Study medication was self-administered daily by subcutaneous injection for a maximum of 18 months. All enrolled patients also received calcium and vitamin D supplementation from the time of enrollment until the end of the treatment period. It was recommended to patients that they also continue these supplements through the one-month follow-up period.
The study enrolled otherwise healthy ambulatory women aged 49 to 86 (inclusive) who had been postmenopausal for at least five years, met the study entry criteria, and had provided written informed consent. […] All patients were to be in good general health as determined by medical history, physical examination (including vital signs), and clinical laboratory testing. This study population contained a patient population reflective of the type of severe osteoporosis patients that specialists would be expected to treat in their practices.
As set forth in the ACTIVE protocol, the primary efficacy endpoint was the number of patients treated with abaloparatide with incident vertebral fractures at the end of treatment as compared to those who received placebo. The pre-specified secondary efficacy parameters included, among other endpoints, reduction in the incidence/risk of non-vertebral fractures; changes in BMD of the spine, hip, and femoral neck from baseline to end of treatment as assessed by DXA and as compared to teriparatide; and the number of hypercalcemic events in abaloparatide treated patients when compared to teriparatide at end of treatment.

[3] = tested on: postmenopausal women with osteoporosis; assay: Phase 2 trial 24-week extension (48 weeks): BMD and tolerability
[4] = tested on: ovariectomized (OVX) osteopenic rats; assay: OVX osteopenic rats: BMD by DXA; type: in vivo, Sprague-Dawley rats; settings: for increase in BMD of femoral bone compared to OVX-Vehicle control rats: 6 weeks
[5] = tested on: postmenopausal women with osteoporosis; assay: ACTIVE: fracture efficacy versus baseline fracture probability (FRAX); type: in vivo, human
[6] = tested on: postmenopausal women with osteoporosis; assay: ACTIVExtend study: fractures at month 25 (18 months abaloparatide or placebo, then 6 months alendronate); type: in vivo, human
[7] = month 25, abaloparatide 18 months then alendronate 6 months
[8] = patients previously treated with abaloparatide for 18 months, N=558

## CC[C@H](C)[C@H](NC(=O)[C@H](CO)NC(=O)[C@H](CCCCN)NC(=O)CNC(=O)[C@H](CCCCN)NC(=O)[C@H](CC(=O)O)NC(=O)[C@H](Cc1c[nH]cn1)NC(=O)[C@H](CC(C)C)NC(=O)[C@H](CC(C)C)NC(=O)[C@H](CCC(N)=O)NC(=O)[C@H](Cc1c[nH]cn1)NC(=O)[C@H](CCC(=O)O)NC(=O)[C@H](CO)NC(=O)[C@@H](NC(=O)[C@H](C)N)C(C)C)C(=O)N[C@@H](CCC(N)=O)C(=O)N[C@@H](CC(=O)O)C(=O)N[C@@H](CC(C)C)C(=O)N[C@@H](CCCNC(=N)N)C(=O)N[C@@H](CCCNC(=N)N)C(=O)N[C@@H](CCCNC(=N)N)C(=O)N[C@@H](CCC(=O)O)C(=O)N[C@@H](CC(C)C)C(=O)N[C@@H](CC(C)C)C(=O)N[C@@H](CCC(=O)O)C(=O)N[C@@H](CCCCN)C(=O)N[C@@H](CC(C)C)C(=O)N[C@@H](CC(C)C)C(=O)NC(C)(C)C(=O)N[C@@H](CCCCN)C(=O)N[C@@H](CC(C)C)C(=O)N[C@@H](Cc1c[nH]cn1)C(=O)N[C@H](C(=O)N[C@@H](C)C(N)=O)[C@@H](C)O [abaloparatide, [Glu^22,25, Leu^23,28,31, Aib^29, Lys^26,30]hpTHrP(1-34)NH2]
[1]; 5 μg/kg SC daily
  increase in BV/TV of distal femur trabecular bone over OVX-Veh: approximately 2.5 fold
  increase in BV/TV of vertebral trabecular bone over OVX-Veh: 56% and 57%
  Femoral cortical bone BV: 2.98 mm^3
  Femoral cortical bone BV/TV: 66.8%
  Femoral cortical bone Ct.Th: 0.703 mm
  Femoral cortical bone MV: 1.50 mm^3
  Femoral cortical bone TV: 4.48 mm^3
  Femoral trabecular bone BD: 421 mg/mm^2
  Femoral trabecular bone BV: 10.76 mm^3
  Femoral trabecular bone BV/TV: 37.2%
  Femoral trabecular bone Conn.D: 53.1 ± 1/mm^3
  Femoral trabecular bone SMI: −0.39
  Femoral trabecular bone TV: 28.9 mm^3
  Femoral trabecular bone Tb.N: 2.43 ± 1/mm
  Femoral trabecular bone Tb.Sp: 0.494 mm
  Femoral trabecular bone Tb.Th: 0.128 mm
  L4 Lumbar Spine BD: 570 mg/mm^2
  L4 Lumbar Spine BV: 16.6 mm^3
  L4 Lumbar Spine BV/TV: 51.7%
  L4 Lumbar Spine Conn.D: 48.0 ± 1/mm^3
  L4 Lumbar Spine SMI: −1.33
  L4 Lumbar Spine TV: 32.3 mm^3
  L4 Lumbar Spine Tb.N: 3.91 ± 1/mm
  L4 Lumbar Spine Tb.Sp: 0.219 mm
  L4 Lumbar Spine Tb.Th: 0.136 mm
[1]; 20 μg/kg SC daily
  higher BV/TV of vertebral trabecular bone compared to Sham-Veh: 14%
  increase in BV/TV of distal femur trabecular bone compared to OVX-Vehicle: 270%
  increase in BV/TV of distal femur trabecular bone over OVX-Veh: ~3.7 fold
  increase in BV/TV of vertebral trabecular bone over OVX-Veh: 77% and 78%
  increase in femur midshaft BV/TV compared to OVX-Veh: 6%
  increase in femur midshaft BV/TV compared to Sham-Veh: 4%
  Femoral cortical bone BV: 3.04 mm^3
  Femoral cortical bone BV/TV: 70.0%
  Femoral cortical bone Ct.Th: 0.723 mm
  Femoral cortical bone MV: 1.32 mm^3
  Femoral cortical bone TV: 4.35 mm^3
  Femoral trabecular bone BD: 596 mg/mm^2
  Femoral trabecular bone BV: 16.58 mm^3
  Femoral trabecular bone BV/TV: 56.2%
  Femoral trabecular bone Conn.D: 34.7 ± 1/mm^3
  Femoral trabecular bone SMI: −3.26
  Femoral trabecular bone TV: 29.2 mm^3
  Femoral trabecular bone Tb.N: 3.01 ± 1/mm
  Femoral trabecular bone Tb.Sp: 0.399 mm
  Femoral trabecular bone Tb.Th: 0.186 mm
  L4 Lumbar Spine BD: 631 mg/mm^2
  L4 Lumbar Spine BV: 18.0 mm^3
  L4 Lumbar Spine BV/TV: 58.6%
  L4 Lumbar Spine Conn.D: 42.1 ± 1/mm^3
  L4 Lumbar Spine SMI: −2.23
  L4 Lumbar Spine TV: 30.7 mm^3
  L4 Lumbar Spine Tb.N: 4.05 ± 1/mm
  L4 Lumbar Spine Tb.Sp: 0.201 mm
  L4 Lumbar Spine Tb.Th: 0.152 mm
[2]
  Fracture Risk Reduction ABL v. TPTD, incident clinical fractures: 19% (95%
  Fracture Risk Reduction ABL v. TPTD, incident non-vertebral fractures: 21% (NS)
  Fracture Risk Reduction ABL v. TPTD, major osteoporotic fractures: 55%
  Fracture Risk Reduction ABL v. TPTD, wrist: 57%
[2]; listed as ABL
  Fracture Risk Reduction ABL v. TPTD, major osteoporotic fractures: 55%
[3]; 20 μg daily SC
  femoral neck BMD increase: 3.9%
  lumbar spine BMD increase: 5.1%
  total hip BMD increase: 1.9%
[3]; 40 μg daily SC
  femoral neck BMD increase: 1.8%
  lumbar spine BMD increase: 9.8%
  total hip BMD increase: 2.1%
[3]; 80 μg daily SC
  femoral neck BMD increase: 4.1%
  total hip BMD increase: 2.7%
[4]; 5 μg/kg SC daily
  increase in BMD of femoral bone compared to OVX-Vehicle control rats: 17%
[4]; 5 μg/kg and 20 μg/kg, six weeks (one value)
  increase in cortical bone mass compared to OVX-vehicle treated rats: approximately 8%
[4]; 20 μg/kg SC daily
  increase in BMD of femoral bone compared to OVX-Vehicle control rats: 23%
[5]; followed for up to 2 years
  decrease in major osteoporotic fracture (MOF) compared to placebo treatment: 69%
  decrease in risk of any clinical fracture (AF): 43%
[5]; in vivo
  Overall treatment effect (HR) compared to placebo, any fracture: 0.57
  Overall treatment effect (HR) compared to placebo, clinical vertebral fracture: 0.12
  Overall treatment effect (HR) compared to placebo, major osteoporotic fracture: 0.31
  Overall treatment effect (HR) compared to placebo, morphometric vertebral fracture: 0.14
  Overall treatment effect (HR) compared to placebo, osteoporotic fracture: 0.39
[6]; [7]
  Fracture Risk Reduction PBO/ALN v. ABL/ALN, incident clinical fractures: 45%
  Fracture Risk Reduction PBO/ALN v. ABL/ALN, incident non-vertebral fractures: 52%
  Fracture Risk Reduction PBO/ALN v. ABL/ALN, major osteoporotic fractures: 58%
[6]; patients previously treated with abaloparatide
  vertebral fracture during the 6 months alendronate treatment period: no patients
[6]; [8]
  major osteoporotic fractures (n) during the six months of alendronate treatment: 2
  non-vertebral fractures (n) during the six months of alendronate treatment: 3
